Results reported in article PMC10589240.
These are yes or no findings as the source states them, for the method shown. Binding seen in cells or lysates may run through a third protein. These calls come from enrichment with a bait or labelling near it, and not all partners need be listed.

By UniProt entry, the sequences of proteins in these tests, tags left out. Where a name states a change or a piece, a line headed by the entry shows the natural chain unless it says otherwise. Chains listed by the source or under a name are the forms on record and can include a tag or linker.
thyroid hormone receptor interactor protein 12 (TRIP12), endogenous (human (endogenous in HCT116 and HEK293T)) (Q14669, form named): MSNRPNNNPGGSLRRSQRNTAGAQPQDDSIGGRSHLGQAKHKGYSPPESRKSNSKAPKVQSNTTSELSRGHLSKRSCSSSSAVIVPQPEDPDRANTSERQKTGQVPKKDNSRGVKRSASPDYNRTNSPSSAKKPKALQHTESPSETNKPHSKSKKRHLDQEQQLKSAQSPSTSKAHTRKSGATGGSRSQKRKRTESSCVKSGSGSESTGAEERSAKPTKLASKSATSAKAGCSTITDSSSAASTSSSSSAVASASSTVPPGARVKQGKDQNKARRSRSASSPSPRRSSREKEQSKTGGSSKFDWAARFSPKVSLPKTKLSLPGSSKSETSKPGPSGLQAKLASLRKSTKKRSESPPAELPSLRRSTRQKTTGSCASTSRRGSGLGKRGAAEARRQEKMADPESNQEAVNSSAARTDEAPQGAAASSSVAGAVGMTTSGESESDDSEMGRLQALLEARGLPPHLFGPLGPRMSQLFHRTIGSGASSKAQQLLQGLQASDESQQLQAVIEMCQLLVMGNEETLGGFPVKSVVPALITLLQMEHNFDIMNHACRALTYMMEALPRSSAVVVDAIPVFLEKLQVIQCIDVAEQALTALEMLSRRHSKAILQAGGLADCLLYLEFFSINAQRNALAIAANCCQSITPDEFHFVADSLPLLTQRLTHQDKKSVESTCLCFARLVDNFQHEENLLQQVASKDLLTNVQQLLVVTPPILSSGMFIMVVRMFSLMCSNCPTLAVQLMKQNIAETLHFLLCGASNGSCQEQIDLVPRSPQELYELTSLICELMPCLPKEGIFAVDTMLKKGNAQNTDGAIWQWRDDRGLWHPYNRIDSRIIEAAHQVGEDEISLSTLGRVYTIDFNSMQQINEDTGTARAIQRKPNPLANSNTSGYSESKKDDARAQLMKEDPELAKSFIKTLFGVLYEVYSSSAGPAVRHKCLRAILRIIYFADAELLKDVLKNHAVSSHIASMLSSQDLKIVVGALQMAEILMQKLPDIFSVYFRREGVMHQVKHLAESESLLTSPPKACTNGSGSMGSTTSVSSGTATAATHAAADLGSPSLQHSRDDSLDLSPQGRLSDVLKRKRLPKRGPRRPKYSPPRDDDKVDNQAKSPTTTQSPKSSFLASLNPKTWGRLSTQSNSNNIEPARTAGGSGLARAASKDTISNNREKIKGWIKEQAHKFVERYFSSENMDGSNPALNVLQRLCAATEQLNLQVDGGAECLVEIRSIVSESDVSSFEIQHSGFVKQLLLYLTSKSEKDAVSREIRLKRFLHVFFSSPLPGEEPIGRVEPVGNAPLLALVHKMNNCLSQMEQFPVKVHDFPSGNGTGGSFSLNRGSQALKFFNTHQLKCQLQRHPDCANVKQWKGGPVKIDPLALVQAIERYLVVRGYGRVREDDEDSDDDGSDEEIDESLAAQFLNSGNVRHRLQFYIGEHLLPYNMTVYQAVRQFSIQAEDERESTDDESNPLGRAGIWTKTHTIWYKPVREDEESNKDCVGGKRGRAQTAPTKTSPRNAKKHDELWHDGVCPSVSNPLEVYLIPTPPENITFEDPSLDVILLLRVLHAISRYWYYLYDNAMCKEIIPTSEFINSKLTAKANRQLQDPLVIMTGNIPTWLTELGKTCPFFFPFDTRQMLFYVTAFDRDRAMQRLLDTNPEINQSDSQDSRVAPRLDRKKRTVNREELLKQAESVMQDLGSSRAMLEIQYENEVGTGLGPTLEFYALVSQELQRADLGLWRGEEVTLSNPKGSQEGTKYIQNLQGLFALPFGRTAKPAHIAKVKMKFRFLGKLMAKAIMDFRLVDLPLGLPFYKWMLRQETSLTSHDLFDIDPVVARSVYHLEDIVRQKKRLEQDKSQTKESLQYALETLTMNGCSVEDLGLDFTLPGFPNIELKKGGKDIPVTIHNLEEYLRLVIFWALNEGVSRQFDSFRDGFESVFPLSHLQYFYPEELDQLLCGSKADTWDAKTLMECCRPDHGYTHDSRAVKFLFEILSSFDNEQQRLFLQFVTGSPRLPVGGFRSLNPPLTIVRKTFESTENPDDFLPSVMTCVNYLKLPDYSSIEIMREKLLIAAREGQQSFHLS
UniProt Q13485: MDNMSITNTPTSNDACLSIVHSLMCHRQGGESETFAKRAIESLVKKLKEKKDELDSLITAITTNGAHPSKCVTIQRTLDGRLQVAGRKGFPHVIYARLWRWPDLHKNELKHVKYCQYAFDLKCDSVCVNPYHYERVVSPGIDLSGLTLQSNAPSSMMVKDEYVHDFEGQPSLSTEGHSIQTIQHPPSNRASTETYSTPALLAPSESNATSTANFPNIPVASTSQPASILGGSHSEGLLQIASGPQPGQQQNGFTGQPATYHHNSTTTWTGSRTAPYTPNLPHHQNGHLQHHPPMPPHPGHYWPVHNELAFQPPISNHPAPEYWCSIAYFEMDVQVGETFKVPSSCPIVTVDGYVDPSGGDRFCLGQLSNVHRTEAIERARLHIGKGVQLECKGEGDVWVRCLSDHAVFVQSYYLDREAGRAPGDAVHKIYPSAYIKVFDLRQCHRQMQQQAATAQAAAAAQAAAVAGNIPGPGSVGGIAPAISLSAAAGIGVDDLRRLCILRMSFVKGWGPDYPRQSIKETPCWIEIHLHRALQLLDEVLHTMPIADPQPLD

Target: thyroid hormone receptor interactor protein 12 (TRIP12), endogenous (human (endogenous in HCT116 and HEK293T)) (UniProt Q14669)
Assay: affinity purification with mass spectrometry; IP with an antibody to endogenous TRIP12 (control IgG) from lysates of HCT116 cells treated with MG132 for 6 h; protein A/G Sepharose; gel bands analysed by MS

Question: How did the binding turn out when “SMAD4, endogenous (from UniProt Q13485 1-552)” was run?
Answer: Its binding is “binds”.
